Reference: the supplement of paper PMC12542422
Where a name gives a salt, the structure may show the parent alone. ± gives the standard deviation of the averaged measurements. Some of the results follow. These are raw signals, not scaled to a control.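 Across three biological replicates, HeLa cells were imaged for ribosome assembly using ENP1 staining (export block present or absent) or inducible tagged ribosomal protein reporters. Machine learning classified each cell's signal localization relative to DMSO controls. Hits exceeded the DMSO false-positive mean by five standard deviations and were then visually confirmed.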

Experiments:
[1] = system: HeLa K (ENP1 immunofluorescence, +LMB); assay: fraction of cells with nucleolar or nucleolar/nucleoplasmic ENP1 signal (MainHitrate); higher = more cells with nucleolar/nuclear readout signal (for ENP1 -LMB: less RNAPI inhibition; for +LMB ENP1 and RP reporters: stronger nuclear/nucleolar retention, i.e. ribosome biogenesis defect); conditions: concentration: 1 µM; treatment time: 6 h; ENP1 +LMB; leptomycin B: 20 nM, last 1.5 h
[2] = system: HeLa K (ENP1 immunofluorescence, no LMB); assay: as above; conditions: concentration: 1 µM; treatment time: 6 h; ENP1 -LMB; leptomycin B: none
[3] = system: HeLa RPS2-YFP reporter; assay: fraction of reporter-positive cells with nuclear (nucleolar or nucleolar/nucleoplasmic) RPS2-YFP (MainHitrate); higher = more cells with nucleolar/nuclear readout signal (for ENP1 -LMB: less RNAPI inhibition; for +LMB ENP1 and RP reporters: stronger nuclear/nucleolar retention, i.e. ribosome biogenesis defect); conditions: concentration: 1 µM; treatment time: 6 h
[4] = system: HeLa RPL29-GFP reporter; assay: fraction of reporter-positive cells with nuclear (nucleolar or nucleolar/nucleoplasmic) RPL29-GFP (MainHitrate); higher = more cells with nucleolar/nuclear readout signal (for ENP1 -LMB: less RNAPI inhibition; for +LMB ENP1 and RP reporters: stronger nuclear/nucleolar retention, i.e. ribosome biogenesis defect); conditions: concentration: 1 µM; treatment time: 6 h

Cc1c(OCC(F)(F)F)ccnc1C[S@@+]([O-])c1nc2ccccc2[nH]1 [Dexlansoprazole]
fraction [1]: 0.122 ± 0.19
fraction [2]: 0.988 ± 0.021
fraction of reporter-positive cells with nuclear [3]: 0.124 ± 0.11
fraction of reporter-positive cells with nuclear [4]: 0.187 ± 0.056

N=C(N)N/N=C/c1c(Cl)cccc1Cl [Guanabenz acetate]
fraction [1]: 0.0671 ± 0.087
fraction [2]: 0.979 ± 0.036
fraction of reporter-positive cells with nuclear [3]: 0.123 ± 0.082
fraction of reporter-positive cells with nuclear [4]: 0.221 ± 0.1

O=C1NCC2(CCN(CCc3ccccc3)CC2)O1 [Fenspiride HCl]
fraction [1]: 0.0943 ± 0.14
fraction [2]: 0.988 ± 0.021
fraction of reporter-positive cells with nuclear [3]: 0.13 ± 0.12
fraction of reporter-positive cells with nuclear [4]: 0.242 ± 0.054

COC(=O)C1=C(C#N)NC(C)=C(C(=O)OC(C)C)C1c1cccc([N+](=O)[O-])c1 (stereo unspecified) [Nilvadipine (ARC029)]
fraction [1]: 0.0542 ± 0.076
fraction [2]: 0.98 ± 0.035
fraction of reporter-positive cells with nuclear [3]: 0.138 ± 0.087
fraction of reporter-positive cells with nuclear [4]: 0.257 ± 0.093

COc1cccc2c1C(=O)c1c(O)c3c(c(O)c1C2=O)C[C@@](O)(C(=O)CO)C[C@@H]3O[C@H]1C[C@H](N)[C@H](O)[C@H](C)O1 [Doxorubicin (Adriamycin)]
fraction [1]: 0.0732 ± 0.12
fraction [2]: 0.682 ± 0.55
fraction of reporter-positive cells with nuclear [3]: 0.033 ± 0.022
fraction of reporter-positive cells with nuclear [4]: 0.671 ± 0.44

CCc1ccc(CCOc2ccc(CC3SC(=O)NC3=O)cc2)nc1 (stereo unspecified) [Pioglitazone (Actos)]
fraction [1]: 0.0797 ± 0.099
fraction [2]: 0.988 ± 0.021
fraction of reporter-positive cells with nuclear [3]: 0.105 ± 0.1
fraction of reporter-positive cells with nuclear [4]: 0.253 ± 0.074

O=C1CCC(N2C(=O)c3ccccc3C2=O)C(=O)N1 (stereo unspecified) [Thalidomide]
fraction [1]: 0.0654 ± 0.037
fraction [2]: 0.9971 ± 0.005
fraction of reporter-positive cells with nuclear [3]: 0.106 ± 0.072
fraction of reporter-positive cells with nuclear [4]: 0.216 ± 0.056

Cc1c(N(C)C)c(=O)n(-c2ccccc2)n1C [Amidopyrine]
fraction [1]: 0.135 ± 0.2
fraction [2]: 0.986 ± 0.024
fraction of reporter-positive cells with nuclear [3]: 0.121 ± 0.08
fraction of reporter-positive cells with nuclear [4]: 0.205 ± 0.055

C[C@H](CCC(=O)O)[C@H]1CC[C@H]2[C@@H]3[C@H](O)C[C@@H]4C[C@H](O)CC[C@]4(C)[C@H]3CC[C@]12C [Chenodeoxycholic acid]
fraction [1]: 0.0848 ± 0.086
fraction [2]: 0.992 ± 0.015
fraction of reporter-positive cells with nuclear [3]: 0.101 ± 0.078
fraction of reporter-positive cells with nuclear [4]: 0.236 ± 0.05
